Results from the supplement of paper PMC9226226.
Values joined by “and” are separate entries in the source; they are usually repeats but may differ in a detail not shown here. Equal values may be shown once. ± gives the standard deviation of the averaged measurements. The list shows a part of the results. Several reference drugs read as weak here; read low effects with care.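 The cells are human mesenchymal stem cells that lack the Werner syndrome gene and age prematurely. Growth was tracked by automated live-cell imaging in three biological repeats, and the twenty drugs that most raised growth over vehicle were taken forward, with no fixed cutoff stated.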

Tested on: Werner syndrome hMSCs (WRN-/-)
Test: relative cell density (fold change vs vehicle control); higher = more proliferation (geroprotective)
Settings: concentration (umol/L): 1, 6 days

Row | SMILES | relative cell density (vehicle: DMSO) | relative cell density (vehicle: Water)
1 | OCC(O)CN1CCN(c2ccccc2)CC1 (stereo unspecified) | 0.875 | 
2 | CCn1cc(C(=O)O)c(=O)c2cc(F)c(N3CCNCC3)cc21 |  | 0.804
3 | CC(C)C[C@H](NC(=O)CNC(=O)c1cc(Cl)ccc1Cl)B1OC(=O)CC(CC(=O)O)(C(=O)O)O1 (stereo partly specified) | 0.262 | 
4 | CCOC(=O)C1=C(C)NC(C)=C(C(=O)OC)C1c1cccc([N+](=O)[O-])c1 (stereo unspecified) | 1.26 | 
5 | CNC(=O)c1ccccc1Sc1ccc2c(/C=C/c3ccccn3)n[nH]c2c1 | 0.588 | 
6 | CC(CN1c2ccccc2Sc2ccccc21)N(C)C (stereo unspecified) | 1.22 | 
7 | O=C(c1ccc(OCCN2CCCCC2)cc1)c1c(-c2ccc(O)cc2)sc2cc(O)ccc12 | 1.11 | 
8 | CN1CCN(c2ccc(C(=O)Nc3n[nH]c4ccc(Cc5cc(F)cc(F)c5)cc34)c(NC3CCOCC3)c2)CC1 | 1 | 
9 | CCN1CCCC1CNC(=O)c1cc(S(=O)(=O)CC)c(N)cc1OC (stereo unspecified) | 1.04 | 
10 | Nc1nc(N)nc(-c2cc(Cl)ccc2Cl)n1 |  | 1.06
11 | S=P(N1CC1)(N1CC1)N1CC1 | 0.812 | 
12 | C[C@@H](O)[C@H]1C(=O)N2C(C(=O)OCOC(=O)C(C)(C)C)=C(SC3CN(C4=NCCS4)C3)[C@H](C)[C@H]12 | 1.21 | 
13 | C1CNCCNCCNCCN1 | 1.07 | 
14 | CCCCOc1ccc(OCCCN2CCOCC2)cc1 | 1.05 | 
15 | CC1CCc2cc(F)cc3c(=O)c(C(=O)O)cn1c23 (stereo unspecified) | 0.958 | 
16 | CC(C)c1nc(CN(C)C(=O)N[C@H](C(=O)N[C@@H](Cc2ccccc2)C[C@H](O)[C@H](Cc2ccccc2)NC(=O)OCc2cncs2)C(C)C)cs1 | 1.11 | 
17 | COc1ccccc1OCCNCC(O)COc1cccc2[nH]c3ccccc3c12 (stereo unspecified) | 1.21 | 
18 | CC(C)[C@H]1CC[C@H](C(=O)N[C@H](Cc2ccccc2)C(=O)O)CC1 | 0.948 | 
19 | COc1ccc(-n2nc(C(N)=O)c3c2C(=O)N(c2ccc(N4CCCCC4=O)cc2)CC3)cc1 | 1.17 | 

Row | SMILES | relative cell density (vehicle: DMSO) | relative cell density (vehicle: Water)
20 | N=C(N)c1ccc(OCCCCCOc2ccc(C(=N)N)cc2)cc1 | 0.877 | 
21 | CCCCC(=O)O[C@H]1CC[C@H]2[C@@H]3CCc4cc(O)ccc4[C@H]3CC[C@]12C | 1.14 | 
22 | Fc1ccc(C(c2ccc(F)cc2)N2CCN(C/C=C/c3ccccc3)CC2)cc1 | 1.23 | 
23 | CN[C@@H]1[C@H](O[C@H]2[C@H](O[C@H]3[C@H](O)[C@@H](O)[C@H](N=C(N)N)[C@@H](O)[C@@H]3N=C(N)N)O[C@@H](C)[C@]2(O)C=O)O[C@@H](CO)[C@H](O)[C@H]1O |  | 0.912
24 | Nc1nc(Cl)nc2c1ncn2[C@H]1C[C@H](O)[C@@H](CO)O1 | 1.67 | 
25 | Cn1nnc(-c2ccc(-c3ccc(N4C[C@H](COP(=O)(O)O)OC4=O)cc3F)cn2)n1 | 1.1 | 
26 | CCC(=O)O[C@@H](O[P@](=O)(CCCCc1ccccc1)CC(=O)N1C[C@H](C2CCCCC2)C[C@H]1C(=O)O)C(C)C |  | 0.965 ± 0.084
27 | CC1(C)S[C@@H]2[C@H](NC(=O)[C@H](N)c3ccc(O)cc3)C(=O)N2[C@H]1C(=O)O | 1.51 and 1.19 | 
28 | OCCOCCN1CCN(C2=Nc3ccccc3Sc3ccccc32)CC1 | 0.964 | 
29 | CN(N=O)C(=O)NC1C(O)OC(CO)C(O)C1O (stereo unspecified) | 1.09 | 
30 | Oc1ncnc2[nH]ncc12 | 1.11 | 
31 | C=C[C@]1(C)C[C@@H](OC(=O)CS[C@@H]2C[C@H]3CC[C@@H](C2)N3C)[C@]2(C)[C@H](C)CC[C@]3(CCC(=O)[C@H]32)[C@@H](C)[C@@H]1O | 1.16 | 
32 | C[C@]12CCC(=O)C=C1CC[C@@H]1[C@@H]2[C@@H](O)C[C@@]2(C)[C@H]1CC[C@]2(O)C(=O)CO | 0.808 | 
33 | CCOC(=O)C1=C[C@@H](OC(CC)CC)[C@H](NC(C)=O)[C@@H](N)C1 |  | 1.25
34 | Cc1onc(-c2ccccc2)c1-c1ccc(S(N)(=O)=O)cc1 | 1.16 | 
35 | COc1ccc(CCN(C)CCCC(C#N)(c2ccc(OC)c(OC)c2)C(C)C)cc1OC (stereo unspecified) | 0.958 | 
36 | CCCc1cc(=O)[nH]c(=S)[nH]1 | 0.995 | 
37 | CO/N=C(\C(=O)N[C@@H]1C(=O)N2C(C(=O)OCOC(=O)C(C)(C)C)=C(/C=C\c3scnc3C)CS[C@H]12)c1csc(N)n1 | 1.13 | 
38 | CC(C)(C(=O)O)c1ccc(C(O)CCCN2CCC(C(O)(c3ccccc3)c3ccccc3)CC2)cc1 (stereo unspecified) | 1.01 | 

Ordered by number of heavy atoms (descending): 3 of the compounds above
Row | SMILES | relative cell density (vehicle: DMSO) | relative cell density (vehicle: Water)
5 | CNC(=O)c1ccccc1Sc1ccc2c(/C=C/c3ccccn3)n[nH]c2c1 | 0.588 | 
28 | OCCOCCN1CCN(C2=Nc3ccccc3Sc3ccccc32)CC1 | 0.964 | 
15 | CC1CCc2cc(F)cc3c(=O)c(C(=O)O)cn1c23 (stereo unspecified) | 0.958 | 

Going on with the list:

Row | SMILES | relative cell density (vehicle: DMSO) | relative cell density (vehicle: Water)
39 | CC(=O)O[C@]1(C(C)=O)CC[C@H]2[C@@H]3C[C@H](C)C4=CC(=O)C=C[C@]4(C)[C@@]3(F)[C@@H](O)C[C@@]21C | 1.16 | 
40 | C[N+]1(C)[C@@H]2C[C@@H](OC(=O)C(O)(c3cccs3)c3cccs3)C[C@H]1[C@@H]1O[C@@H]12 | 1.05 | 
41 | CC(C)(C)C(=O)Oc1ccc(S(=O)(=O)Nc2ccccc2C(=O)NCC(=O)O)cc1 | 0.999 | 
42 | CC(C(=O)O)c1ccc2c(c1)Cc1cccnc1O2 (stereo unspecified) | 1.22 | 
43 | C[C@H]1COc2c(C3(N)CC3)c(F)cc3c(=O)c(C(=O)O)cn1c23 | 1.19 | 
44 | CC(=O)Nc1ccccc1 | 0.944 | 
45 | COC(c1ccccc1)(c1ccccc1)[C@H](Oc1nc(C)cc(C)n1)C(=O)O | 1.18 | 
46 | COC(=O)C1=C(C)NC(C)=C(C(=O)OCCN2CCN(C(c3ccccc3)c3ccccc3)CC2)C1c1cccc([N+](=O)[O-])c1 (stereo unspecified) | 1.28 and 1.17 | 
47 | Cc1c(C)c2c(c(C)c1O)CCC(C)(COc1ccc(CC3SC(=O)NC3=O)cc1)O2 (stereo unspecified) | 1.05 | 
48 | C[N+]1(C)[C@@H]2CC[C@H]1C[C@@H](OC(=O)C(O)c1ccccc1)C2 (stereo partly specified) | 1.22 | 
49 | Cc1ccccc1-c1cc(N2CCN(C)CC2)ncc1N(C)C(=O)C(C)(C)c1cc(C(F)(F)F)cc(C(F)(F)F)c1 |  | 1.05
50 | CC(C)OC(=O)[C@H](C)N[P@](=O)(OC[C@H]1O[C@@H](n2ccc(=O)[nH]c2=O)[C@](C)(F)[C@@H]1O)Oc1ccccc1 | 1.46 | 
51 | COC(=O)Nc1nc2cc(C(=O)c3ccccc3)ccc2[nH]1 | 0.245 | 
52 | CC1(C)S[C@@H]2[C@H](NC(=O)[C@H](NC(=O)N3CCNC3=O)c3ccccc3)C(=O)N2[C@H]1C(=O)O | 1.08 | 
53 | CC(C)c1ccc2oc3nc(N)c(C(=O)O)cc3c(=O)c2c1 | 0.934 | 
54 | Cc1cn([C@H]2O[C@@H](CO)[C@H](O)[C@H]2F)c(=O)[nH]c1=O | 1.1 | 
55 | CC(CCc1ccccc1)NCC(O)c1ccc(O)c(C(N)=O)c1 (stereo unspecified) | 1.2 | 
56 | CCOC(=O)[C@H](CCc1ccccc1)N[C@@H](C)C(=O)N1Cc2ccccc2C[C@H]1C(=O)O | 1.09 | 
